# Test results: patent US20130217582, “Library Compositions and Methods for Acyclic Identification of Aptamers” (published 2013)
# Chains of the proteins cited; added tags and fusions are not shown. Chains listed by the source or under a name are the forms on record and can include a tag or linker.
# Coagulation factor IXa (FIXa) (Homo sapiens), one chain, as listed by the source, chain 2 of 2: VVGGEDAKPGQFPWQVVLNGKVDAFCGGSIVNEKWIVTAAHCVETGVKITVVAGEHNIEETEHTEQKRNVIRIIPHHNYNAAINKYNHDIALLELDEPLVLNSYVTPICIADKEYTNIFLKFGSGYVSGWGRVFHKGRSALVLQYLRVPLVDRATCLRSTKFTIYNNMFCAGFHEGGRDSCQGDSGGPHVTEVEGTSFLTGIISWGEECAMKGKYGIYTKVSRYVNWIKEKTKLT
# Coagulation factor IXa (FIXa) (Homo sapiens), one chain, as listed by the source, chain 1 of 2: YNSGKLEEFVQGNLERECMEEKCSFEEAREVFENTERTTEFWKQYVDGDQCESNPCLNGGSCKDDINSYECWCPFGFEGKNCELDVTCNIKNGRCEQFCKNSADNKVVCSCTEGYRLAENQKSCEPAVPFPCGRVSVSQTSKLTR
# For at least one entry, the source does not settle the construct or the ends of the probe.
# Tested on: Coagulation factor IXa (FIXa) (Homo sapiens)
# Assay: SELEX
# Details: top-9 sequence counted >=1000, count in image, purified native protein
sequence,measurement,setting,value
ACGACGCUCUUCCGAUCUAUGGACAGGAUGGUUUCGCUUUUAGAUGCGGUAAGUGCAAAGCUAACGGAGCUCGUAUGC [FIXa aptamer SEQ 143],selection result,,selected
ACGACGCUCUUCCGAUCUAUGGACGAUUGUCCCCCAGAGUGUUGCACGCACGUCCGGAAGCUAACGGAGCUCGUAUGC [FIXa aptamer SEQ 110],selection result,,selected
ACGACGCUCUUCCGAUCUAUGGGAAGGAAUGUCCGUCCCCACCUGCGGUUGGCUUGAAAGCUAACGGAGCUCGUAUGC [FIXa aptamer SEQ 104],selection result,"20 mM Tris pH 7.4, 140 mM NaCl, 5 mM KCl, 1 mM CaCl2, 1 mM MgCl2, 25 C",selected
ACGACGCUCUUCCGAUCUAUGGGAAUGUACUUGGUUGCUCCUUGCCCCCGCGUAGUCAAGCUAACGGAGCUCGUAUGC [FIXa aptamer SEQ 149],selection result,,selected
ACGACGCUCUUCCGAUCUAUGGUCCAAGCAUAACCUGUGUCCGGUAGAUCAUGCCCGAAGCUAACGGAGCUCGUAUGC [FIXa aptamer SEQ 138],selection result,,selected
ACGACGCUCUUCCGAUCUAUGGUCGCCGGGUACCCAUUCCAGGGGGGGAUCGGUCGUAAGCUAACGGAGCUCGUAUGC [FIXa aptamer SEQ 140],selection result,,selected
